Measurements reported in PubChem BioAssay AID1259405 (NCATS, 2018)
In all, the deposit lists about 50,000 reagents; below is a random part of them. In the full data, about 4,000 (8%) were called active. 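Mouse siRNA library applied to hamster cells; one well for each siRNA.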 The numbers tell different reagents against one gene apart. No sequences are given here.

Purpose: 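Mouse-designed siRNAs used to find CHO productivity engineering targets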 (primary screen)
Cells: Chinese hamster CHO-K1 ovary cells with stable secreted eGFP expression
Reagent: single siRNA against mouse genes, 0.8 pmol siRNA per well (2 µl of 400 nM stock)
Timing: 3 days
Measured: 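Percent of the per-plate non-targeting control median for intracellular GFP per well by laser scanning cytometry and for cell viability by ATP luminescence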
Direction: GFP, % of control: higher = more GFP per well, higher productivity; viability (ATP), % of control: higher = more viable cells (more ATP)
Hit rule: 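a knock-down is called active if GFP reaches 120% or more of non-targeting control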

gene symbol	siRNA no.	GFP, % of control	viability (ATP), % of control	call
Stard5 (StAR related lipid transfer domain containing 5)	1	42.5	34.2	inactive
Stard5 (StAR related lipid transfer domain containing 5)	2	70.7	76.1	inactive
Stard5 (StAR related lipid transfer domain containing 5)	3	62.6	67.7	inactive
Pdhx (pyruvate dehydrogenase complex, component X)	1	53.7	65.5	inactive
Pdhx (pyruvate dehydrogenase complex, component X)	2	104	73.5	inactive
Lman2 (lectin, mannose-binding 2)	1	65.3	87.6	inactive
Lman2 (lectin, mannose-binding 2)	2	57.4	62.1	inactive
Macroh2a2 (macroH2A.2 histone)	1	73.6	86.6	inactive
Macroh2a2 (macroH2A.2 histone)	2	77.8	107	inactive
Macroh2a2 (macroH2A.2 histone)	3	47	46.3	inactive
Camkk2 (calcium/calmodulin-dependent protein kinase kinase 2, beta)	1	71.8	57.2	inactive
Camkk2 (calcium/calmodulin-dependent protein kinase kinase 2, beta)	2	54.6	58.9	inactive
Camkk2 (calcium/calmodulin-dependent protein kinase kinase 2, beta)	3	92.8	71.3	inactive
Relch	1	30.4	40.4	inactive
Relch	2	70.9	98	inactive
Relch	3	64.3	76.4	inactive
Ccni (cyclin I)	1	68.2	73.8	inactive
Ccni (cyclin I)	2	79.1	103	inactive
Sdhc	1	157	73.9	active
Sdhc	2	114	74.2	inactive
Sdhc	3	80.4	92.6	inactive
Map2k1 (mitogen-activated protein kinase kinase 1)	1	112	79.5	inactive
Hsd3b5	1	43.8	42.4	inactive
Hsd3b5	2	61.1	35.8	inactive
Hsd3b5	3	101	98	inactive
Zap70 (zeta-chain (TCR) associated protein kinase)	1	49.5	62.2	inactive
Zap70 (zeta-chain (TCR) associated protein kinase)	2	52.8	67.6	inactive
Zap70 (zeta-chain (TCR) associated protein kinase)	3	88.7	75	inactive
Zdhhc17 (zinc finger, DHHC domain containing 17)	1	80.7	79.7	inactive
Zdhhc17 (zinc finger, DHHC domain containing 17)	2	64.6	93.7	inactive
Zdhhc17 (zinc finger, DHHC domain containing 17)	3	62.5	74.3	inactive
Scd4 (stearoyl-coenzyme A desaturase 4)	1	47.9	43.2	inactive
Scd4 (stearoyl-coenzyme A desaturase 4)	2	54.1	58.5	inactive
Scd4 (stearoyl-coenzyme A desaturase 4)	3	76	86.2	inactive
Trpv5	1	89.4	106	inactive
Trpv5	2	88.2	85.8	inactive
Trpv5	3	89.3	103	inactive
Ttf1 (transcription termination factor, RNA polymerase I)	1	65.1	81.4	inactive
Ttf1 (transcription termination factor, RNA polymerase I)	2	88.1	96.7	inactive
Ugt2b34 (UDP glucuronosyltransferase 2 family, polypeptide B34)	1	79	111	inactive
Ugt2b34 (UDP glucuronosyltransferase 2 family, polypeptide B34)	2	100	86.2	inactive
Ugt2b34 (UDP glucuronosyltransferase 2 family, polypeptide B34)	3	96.8	119	inactive
Lrrc75b (leucine rich repeat containing 75B)	1	119	51.9	inactive
Lrrc75b (leucine rich repeat containing 75B)	2	83.2	91.8	inactive
Lrrc75b (leucine rich repeat containing 75B)	3	263	42.5	active
Lrrc75b (leucine rich repeat containing 75B)	4	98.3	81.7	inactive
Lrrc75b (leucine rich repeat containing 75B)	5	81	85.9	inactive
Lrrc75b (leucine rich repeat containing 75B)	6	82	89	inactive
Pax2 (paired box 2)	1	134	85.3	active
Pax2 (paired box 2)	2	96.4	63.2	inactive
Pax2 (paired box 2)	3	26.9	37.8	inactive
Xkr9 (XK related 9)	1	89.2	87.7	inactive
Xkr9 (XK related 9)	2	100	80	inactive
Xkr9 (XK related 9)	3	40.6	33.4	inactive
Or5be3 (olfactory receptor family 5 subfamily BE member 3)	1	120	67.3	inactive
Or5be3 (olfactory receptor family 5 subfamily BE member 3)	2	87.8	54.8	inactive
Or5be3 (olfactory receptor family 5 subfamily BE member 3)	3	42.8	47.7	inactive
Col1a1 (collagen, type I, alpha 1)	1	49.6	56.8	inactive
Col1a1 (collagen, type I, alpha 1)	2	69.7	52.8	inactive
Col1a1 (collagen, type I, alpha 1)	3	138	89	active
Reep2 (receptor accessory protein 2)	1	111	89.2	inactive
Reep2 (receptor accessory protein 2)	2	61.4	74	inactive
Reep2 (receptor accessory protein 2)	3	63.5	87.4	inactive
Vmn1r180 (vomeronasal 1 receptor 180)	1	103	79.4	inactive
Vmn1r180 (vomeronasal 1 receptor 180)	2	91.5	92.5	inactive
Vmn1r180 (vomeronasal 1 receptor 180)	3	30.1	52.6	inactive
Trpc4ap	1	77.5	88.5	inactive
Trpc4ap	2	91.9	87.7	inactive
Trpc4ap	3	99.7	97.2	inactive
Scnn1b (sodium channel, nonvoltage-gated 1 beta)	1	63.7	102	inactive
Scnn1b (sodium channel, nonvoltage-gated 1 beta)	2	165	93.1	active
Scnn1b (sodium channel, nonvoltage-gated 1 beta)	3	70.1	60.3	inactive
Bhmt (betaine-homocysteine methyltransferase)	1	88.1	78.9	inactive
Bhmt (betaine-homocysteine methyltransferase)	2	90.3	119	inactive
Bhmt (betaine-homocysteine methyltransferase)	3	71.6	84.8	inactive
Hectd4 (HECT domain E3 ubiquitin protein ligase 4)	1	42	82.2	inactive
Hectd4 (HECT domain E3 ubiquitin protein ligase 4)	2	34.9	69.6	inactive
Hectd4 (HECT domain E3 ubiquitin protein ligase 4)	3	71.3	66.3	inactive
Dysf (dysferlin)	1	71.1	58.4	inactive
Dysf (dysferlin)	2	74.6	83.9	inactive
Dysf (dysferlin)	3	90.1	83.2	inactive
Wdtc1 (WD and tetratricopeptide repeats 1)	1	190	125	active
Wdtc1 (WD and tetratricopeptide repeats 1)	2	96.3	75.9	inactive
Wdtc1 (WD and tetratricopeptide repeats 1)	3	81.6	92.5	inactive

Called active, of those listed so far:
gene symbol	siRNA no.	GFP, % of control	viability (ATP), % of control	call
Sdhc	1	157	73.9	active
Lrrc75b (leucine rich repeat containing 75B)	3	263	42.5	active
Pax2 (paired box 2)	1	134	85.3	active
Col1a1 (collagen, type I, alpha 1)	3	138	89	active
Scnn1b (sodium channel, nonvoltage-gated 1 beta)	2	165	93.1	active
Wdtc1 (WD and tetratricopeptide repeats 1)	1	190	125	active
